Experimental data taken from patent US10435388B2, “Selective inhibitors of clinically important mutants of the EGFR tyrosine kinase” (CS PHARMATECH LIMITED, priority 2016, dated 2019).

Test system: PC9 cells (SM)
Test: PC-9 growth inhibition assay (cell proliferation), Method B
Details: read-out: SM (PC9) IC50 nM, cellular proliferation, 72 h, several runs

C=CC(=O)Nc1cc(Nc2nccc(-c3c[nH]c4ccccc34)n2)c(OC)cc1N(C)CCN(C)C [AZD-5104]
IC50: 2.44 nM and 0.85 nM

A number of entries come with more than one value. This is not the full list of results. There may be further records. The values listed for one entry differ for a reason that is not stated; some may be repeats, others may stem from another dose, organism or construct than stated.
